In article PMC9327688:
These are yes or no findings as the source states them, for the method shown. Binding seen in cells or lysates may run through a third protein. Binding calls can cover weak binding; strength is not graded here.

Molecular target: ASC (apoptosis-associated speck-like protein containing a CARD) (pig (endogenous in PAMs))
Assay: co-IP; lysates of PAMs infected with PRRSV (MOI = 1, indicated times) or primed with LPS and treated with nigericin; immunoprecipitation with anti-ASC antibody and Dynabeads protein G, 1 h at room temperature; immunoblot for NLRP3, CASP1 and ASC

B1: caspase-1 (CASP1) (enzyme, UniProt Q9N2I1 1-404)
chain: MADKVLKEKRRLFVRSVAMGTINGLLDELLETRVLNQEEVEIVRGENATVMDKARALIDSVIRKGPQACQICINHICGDDPHLAGVLELSTGSQSGKCLTVQESQAVVPPFPAPQTVQDNPVKPASSEPRGSLKLCPPDIAQRLWKEKSAEIYPIMGKSIRTRLALIICNTEFENLPRRDGADVDIRDMKILLEDLGYSVDVRENLTASDMAIELKAFAARPEHKSSDSTFLVLMSHGIQAGICGKKYSEEVPDVLEVNTVFQILNTLNCPSLKDKPKVIIIQACRGEKQGVVWIKDSVGPSGNSSLLAAEDFEYDAIKKAHIEKDFIAFCSSTPDNVSWRHPLLGSLFIIKLIKILQEHAWSCGLEEIFRKVRFSFELADGRAQMPTAERVTLTRSFYLFPGH
binding: binds
